Data reported in patent US9457057B2, “Methods for the prevention and treatment of burn injuries and secondary complications” (The General Hospital Corporation, priority 2009, dated 2016).
“And” between values parts separate entries of the source, which are not always exact repeats. Equal values may be shown once.

Legend:
[1] = test system: ATP synthesis rate (reaction PCr → γATP) in hindlimb skeletal muscle; assay: In vivo 31P-NMR saturation transfer, ATP synthesis rate (reaction PCr→γATP), mouse burn model (Example 8)
Description: (§1) Materials and Methods. Male 6-week-old CD1 mice weighing 20-25 g were anesthetized by intraperitoneal (i.p.) injection of 40 mg/kg pentobarbital sodium. The left hind limb of all mice in all groups was shaved. Each burned mouse was subjected to a nonlethal scald injury of 3-5% total body surface area (TBSA) by immersing its left hind limb in 90° C. water for 3 sec.
(§2) NMR spectroscopy is described in detail in Padfield, et al., Proc Natl Acad Sci USA 102: 5368-5373 (2005). Briefly, mice were randomized into burn, burn+SS-31 peptide, control, and control+peptide groups. The SS-31 peptide (3 mg/kg) was injected intraperitoneally at 30 min prior to burn and a second injection immediately after the burn. NMR experiments were performed in a horizontal bore magnet (proton frequency 400 MHz, 21 cm diameter, Magnex Scientific) using a Bruker Avance console. A 90° pulse was optimized for detection of phosphorus spectra (repetition time 2 s, 400 averages, 4K data points). Saturation 90°-selective pulse trains (duration 36.534 ms, bandwidth 75 Hz) followed by crushing gradients were used to saturate the γ-ATP peak. The same saturation pulse train was also applied downfield of the inorganic phosphate (Pi) resonance, symmetrically to the γ-ATP resonance. T1 relaxation times of Pi and phosphocreatine (PCr) were measured using an inversion recovery pulse sequence in the presence of γ-ATP saturation. An adiabatic pulse (400 scans, sweep with 10 KHz, 4K data) was used to invert Pi and PCr, with an inversion time between 152 ms and 7651 ms.

[2] = test system: ATP synthesis rate (Pi→γATP) in hindlimb skeletal muscle; assay: In vivo 31P-NMR saturation transfer, ATP synthesis rate (Pi→γATP), mouse burn model (Examples 8 and 10)
Description: as §1, §2
Male 6-week-old CD1 mice (20-25 g) were anesthetized by intraperitoneal injection of 40 mg/kg pentobarbital sodium and the left hind limb of all mice was shaved. Burn injury was inflicted by a nonlethal scald injury of 3-5% total body surface area by immersing the left hind limb in 90° C. water for 3 sec. Mice were randomized into burn (B), burn+SS-31 (B+P), control (C) and control+SS-31 (C+P) groups. SS-31 (3 mg/kg) was injected intaperitoneally at 30 min before burn and immediately after burn. A separate group of burned animals received only one dose of the SS-31 peptide immediately after burn.
Values are means±SE; ΔM/M0 is the fractional change in Pi magnetization as a result of saturation transfer; T1obs is the observed spin lattice relaxation time of Pi during γATP saturation in seconds; ATP synthesis is calculated as [Pi]×k; [Pi] is the concentration of Pi extrapolated from the baseline NMR spectrum, comparing Pi and γATP peaks and ATP concentration measured with bioluminescence assay; k is calculated as (1/T1obs)×(ΔM/M0); P-values (unpaired Student's t-test) are for comparisons between experimental and control groups; * indicates only one dose of SS-31 peptide (3 mg/kg) was injected to animals immediately after burn.

[3] = Burn + Peptide (n = 8), 3 mg/kg IP 30 min prior to burn and immediately after the burn
[4] = Controls + Peptide (n = 5), unburned CD1 mice, 3 mg/kg IP two injections
[5] = Burn + Peptide (n = 8), 3 mg/kg IP 30 min before burn and immediately after burn, 6 hours after burn
[6] = Burn + Peptide* (n = 8), only one dose 3 mg/kg immediately after burn

Substance “D-Arg-2′,6′-dimethyltyrosine-Lys-Phe-NH2 [SS-31]” has a Kf [1, 3] of 0.24 ± 0.05 s⁻¹, a T1obs [1, 3] of 1.33 ± 0.27 s and a ΔM/M0 [1, 3] of 0.31 ± 0.06. For the same substance, the Kf [1, 4] was 0.14 ± 0.02 s⁻¹, the T1obs [1, 4] was 1.16 ± 0.14 s and the ΔM/M0 [1, 4] was 0.15 ± 0.02. The T1obs [2, 5] was 1.33 ± 0.27 s, the “ΔM/M0 (fractional change in Pi magnetization)” value [2, 5] was 0.31 ± 0.06 and the T1obs [2, 6] was 1.33 ± 0.27 s. For the same substance, the “ΔM/M0 (fractional change in Pi magnetization)” value [2, 6] was 0.39 ± 0.07, the T1obs [2, 4] was 1.16 ± 0.14 s and the “ΔM/M0 (fractional change in Pi magnetization)” value ([2]; Controls + Peptide (n = 5), unburned CD1 mice, 3 mg/kg IP two injections, 3 mg/kg) was 0.185 ± 0.02 and 0.15 ± 0.02.
